These are yes or no findings as the source states them, for the method shown. Some binding calls cover weakened binding; strength is not graded here.
How the values were obtained:
human CD70 (human) [1] = molecular target: human CD70 (human) (UniProt P32970); experiment: manual IHC, FFPE CD70 positive cell lines
human CD70 (human) [2] = molecular target: human CD70 (human) (UniProt P32970); experiment: IHC Leica BOND, ER2, FFPE HH cells, 8 µg/mL
human CD70 (human) [3] = molecular target: human CD70 (human) (UniProt P32970); experiment: IHC Leica BOND, ER1, FFPE HH cells, 4 µg/mL
human CD70 (human) [4] = molecular target: human CD70 (human) (UniProt P32970); experiment: IHC Leica BOND, ER1, FFPE MJ cells, 4 µg/mL
human CD70 (human) [5] = molecular target: human CD70 (human) (UniProt P32970); experiment: IHC Leica BOND, ER2, FFPE HH cells, 4 µg/mL
human CD70 (human) [6] = molecular target: human CD70 (human) (UniProt P32970); experiment: IHC Leica BOND, ER2, FFPE MJ cells, 4 µg/mL
human CD70 (human) [7] = molecular target: human CD70 (human) (UniProt P32970); experiment: IHC Leica BOND, ER2, FFPE ACHN cells, 8 µg/mL
human CD70 (human) [8] = molecular target: human CD70 (human) (UniProt P32970); experiment: IHC Leica BOND, ER1, FFPE ACHN cells, 4 µg/mL
human CD70 (human) [9] = molecular target: human CD70 (human) (UniProt P32970); experiment: IHC Leica BOND, ER2, FFPE ACHN cells, 4 µg/mL
human CD70 (human) [10] = molecular target: human CD70 (human) (UniProt P32970); experiment: IHC Leica BOND, ER2, FFPE HuT78 cells, 8 µg/mL
human CD70 (human) [11] = molecular target: human CD70 (human) (UniProt P32970); experiment: IHC Leica BOND, ER2, FFPE MM.1S cells, 8 µg/mL
human CD70 (human) [12] = molecular target: human CD70 (human) (UniProt P32970); experiment: IHC Leica BOND, ER1, FFPE HuT78 cells, 4 µg/mL
human CD70 (human) [13] = molecular target: human CD70 (human) (UniProt P32970); experiment: IHC Leica BOND, ER1, FFPE MM.1S cells, 4 µg/mL
human CD70 (human) [14] = molecular target: human CD70 (human) (UniProt P32970); experiment: IHC Leica BOND, ER2, FFPE HuT78 cells, 4 µg/mL
human CD70 (human) [15] = molecular target: human CD70 (human) (UniProt P32970); experiment: IHC Leica BOND, ER2, FFPE MM.1S cells, 4 µg/mL
human CD70 (human) [16] = molecular target: human CD70 (human) (UniProt P32970); experiment: IHC Leica BOND, ER2, FFPE Nomo-1 cells, 8 µg/mL
human CD70 (human) [17] = molecular target: human CD70 (human) (UniProt P32970); experiment: IHC Leica BOND, ER1, FFPE Nomo-1 cells, 4 µg/mL
human CD70 (human) [18] = molecular target: human CD70 (human) (UniProt P32970); experiment: IHC Leica BOND, ER2, FFPE Nomo-1 cells, 4 µg/mL
human CD70 (human) [19] = molecular target: human CD70 (human) (UniProt P32970); experiment: manual IHC, FFPE HH cells (CD70 positive), 10 µg/mL
human CD70 (human) [20] = molecular target: human CD70 (human) (UniProt P32970); experiment: manual IHC, FFPE MJ cells (CD70 positive), 10 µg/mL
human CD70 (human) [21] = molecular target: human CD70 (human) (UniProt P32970); experiment: manual IHC, FFPE ACHN cells (CD70 positive), 10 µg/mL
human CD70 (human) [22] = molecular target: human CD70 (human) (UniProt P32970); experiment: manual IHC, FFPE HuT78 cells (CD70 positive), 10 µg/mL
human CD70 (human) [23] = molecular target: human CD70 (human) (UniProt P32970); experiment: manual IHC, FFPE MM.1S cells (CD70 positive), 10 µg/mL
human CD70 (human) [24] = molecular target: human CD70 (human) (UniProt P32970); experiment: manual IHC, FFPE Nomo-1 cells (CD70 positive), 10 µg/mL
human CD70 (human) [25] = molecular target: human CD70 (human) (UniProt P32970); experiment: IHC Leica BOND, ER1 and ER2, FFPE RCC tissues, 4 µg/mL
human CD70 (human) [26] = molecular target: human CD70 (human) (UniProt P32970); experiment: IHC Leica BOND, ER2, FFPE MI cells (so in the source); likely MJ), 8 µg/mL
human CD70 (human) [27] = molecular target: human CD70 (human) (UniProt P32970); experiment: IHC Leica BOND, FFPE renal clear cell carcinoma tissue microarray, 8 µg/mL

Sequences of proteins named here, by UniProt entry; tags and fusion partners are left off. A change or cut given only in a name is not applied to a line headed by its entry.
UniProt P32970: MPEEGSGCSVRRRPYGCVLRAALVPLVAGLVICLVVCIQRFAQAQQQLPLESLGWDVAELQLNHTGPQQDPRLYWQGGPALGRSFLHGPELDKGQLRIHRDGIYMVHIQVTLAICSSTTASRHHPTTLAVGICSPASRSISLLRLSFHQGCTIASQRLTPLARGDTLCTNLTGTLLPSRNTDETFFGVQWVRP

Measured: binding

B1: 11E12E8 (antibody, IgG1, V domains shown)
VH: DVQLVESGGGLVQPGGSRKLSCAASGFTFSRFGMNWVRQAPEKGLEWVAYISSGSGDIYYADTVKGRFTISRDNPKNTLFLQMTSLRSEDTAMYYCAVTWFAYWGQGTLVTVSA
VL: QAVVTQEPALTTSPGETVTLTCRSSTGAVTTSNYANWVQEKPDHLFTGLIGGTNNRAPGVPARFSGSLIGDKAALTITGAQTEDEAIYFCVLWYSNHFIFGSGTKVTVL
binds: all assays above
